Among the data in article PMC8500839, “Structures of outer-arm dynein array on microtubule doublet reveal a motor coordination mechanism” (Nature Structural & Molecular Biology, 2021) are binding values, retold here.

The chains behind the UniProt entries cited, without tags or fusion partners.
UniProt P41352: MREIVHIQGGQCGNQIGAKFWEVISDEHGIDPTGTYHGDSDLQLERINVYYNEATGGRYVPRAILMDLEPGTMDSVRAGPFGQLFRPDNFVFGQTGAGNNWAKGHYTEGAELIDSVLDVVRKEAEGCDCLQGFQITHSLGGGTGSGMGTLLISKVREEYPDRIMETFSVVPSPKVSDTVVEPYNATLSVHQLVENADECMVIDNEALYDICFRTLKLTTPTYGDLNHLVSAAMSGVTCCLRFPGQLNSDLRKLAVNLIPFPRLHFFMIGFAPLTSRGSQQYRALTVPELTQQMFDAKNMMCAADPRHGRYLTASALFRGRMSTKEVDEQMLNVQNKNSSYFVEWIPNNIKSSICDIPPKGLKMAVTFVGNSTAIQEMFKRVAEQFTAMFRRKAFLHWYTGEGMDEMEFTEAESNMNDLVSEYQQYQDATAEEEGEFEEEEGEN
UniProt I7M6H4: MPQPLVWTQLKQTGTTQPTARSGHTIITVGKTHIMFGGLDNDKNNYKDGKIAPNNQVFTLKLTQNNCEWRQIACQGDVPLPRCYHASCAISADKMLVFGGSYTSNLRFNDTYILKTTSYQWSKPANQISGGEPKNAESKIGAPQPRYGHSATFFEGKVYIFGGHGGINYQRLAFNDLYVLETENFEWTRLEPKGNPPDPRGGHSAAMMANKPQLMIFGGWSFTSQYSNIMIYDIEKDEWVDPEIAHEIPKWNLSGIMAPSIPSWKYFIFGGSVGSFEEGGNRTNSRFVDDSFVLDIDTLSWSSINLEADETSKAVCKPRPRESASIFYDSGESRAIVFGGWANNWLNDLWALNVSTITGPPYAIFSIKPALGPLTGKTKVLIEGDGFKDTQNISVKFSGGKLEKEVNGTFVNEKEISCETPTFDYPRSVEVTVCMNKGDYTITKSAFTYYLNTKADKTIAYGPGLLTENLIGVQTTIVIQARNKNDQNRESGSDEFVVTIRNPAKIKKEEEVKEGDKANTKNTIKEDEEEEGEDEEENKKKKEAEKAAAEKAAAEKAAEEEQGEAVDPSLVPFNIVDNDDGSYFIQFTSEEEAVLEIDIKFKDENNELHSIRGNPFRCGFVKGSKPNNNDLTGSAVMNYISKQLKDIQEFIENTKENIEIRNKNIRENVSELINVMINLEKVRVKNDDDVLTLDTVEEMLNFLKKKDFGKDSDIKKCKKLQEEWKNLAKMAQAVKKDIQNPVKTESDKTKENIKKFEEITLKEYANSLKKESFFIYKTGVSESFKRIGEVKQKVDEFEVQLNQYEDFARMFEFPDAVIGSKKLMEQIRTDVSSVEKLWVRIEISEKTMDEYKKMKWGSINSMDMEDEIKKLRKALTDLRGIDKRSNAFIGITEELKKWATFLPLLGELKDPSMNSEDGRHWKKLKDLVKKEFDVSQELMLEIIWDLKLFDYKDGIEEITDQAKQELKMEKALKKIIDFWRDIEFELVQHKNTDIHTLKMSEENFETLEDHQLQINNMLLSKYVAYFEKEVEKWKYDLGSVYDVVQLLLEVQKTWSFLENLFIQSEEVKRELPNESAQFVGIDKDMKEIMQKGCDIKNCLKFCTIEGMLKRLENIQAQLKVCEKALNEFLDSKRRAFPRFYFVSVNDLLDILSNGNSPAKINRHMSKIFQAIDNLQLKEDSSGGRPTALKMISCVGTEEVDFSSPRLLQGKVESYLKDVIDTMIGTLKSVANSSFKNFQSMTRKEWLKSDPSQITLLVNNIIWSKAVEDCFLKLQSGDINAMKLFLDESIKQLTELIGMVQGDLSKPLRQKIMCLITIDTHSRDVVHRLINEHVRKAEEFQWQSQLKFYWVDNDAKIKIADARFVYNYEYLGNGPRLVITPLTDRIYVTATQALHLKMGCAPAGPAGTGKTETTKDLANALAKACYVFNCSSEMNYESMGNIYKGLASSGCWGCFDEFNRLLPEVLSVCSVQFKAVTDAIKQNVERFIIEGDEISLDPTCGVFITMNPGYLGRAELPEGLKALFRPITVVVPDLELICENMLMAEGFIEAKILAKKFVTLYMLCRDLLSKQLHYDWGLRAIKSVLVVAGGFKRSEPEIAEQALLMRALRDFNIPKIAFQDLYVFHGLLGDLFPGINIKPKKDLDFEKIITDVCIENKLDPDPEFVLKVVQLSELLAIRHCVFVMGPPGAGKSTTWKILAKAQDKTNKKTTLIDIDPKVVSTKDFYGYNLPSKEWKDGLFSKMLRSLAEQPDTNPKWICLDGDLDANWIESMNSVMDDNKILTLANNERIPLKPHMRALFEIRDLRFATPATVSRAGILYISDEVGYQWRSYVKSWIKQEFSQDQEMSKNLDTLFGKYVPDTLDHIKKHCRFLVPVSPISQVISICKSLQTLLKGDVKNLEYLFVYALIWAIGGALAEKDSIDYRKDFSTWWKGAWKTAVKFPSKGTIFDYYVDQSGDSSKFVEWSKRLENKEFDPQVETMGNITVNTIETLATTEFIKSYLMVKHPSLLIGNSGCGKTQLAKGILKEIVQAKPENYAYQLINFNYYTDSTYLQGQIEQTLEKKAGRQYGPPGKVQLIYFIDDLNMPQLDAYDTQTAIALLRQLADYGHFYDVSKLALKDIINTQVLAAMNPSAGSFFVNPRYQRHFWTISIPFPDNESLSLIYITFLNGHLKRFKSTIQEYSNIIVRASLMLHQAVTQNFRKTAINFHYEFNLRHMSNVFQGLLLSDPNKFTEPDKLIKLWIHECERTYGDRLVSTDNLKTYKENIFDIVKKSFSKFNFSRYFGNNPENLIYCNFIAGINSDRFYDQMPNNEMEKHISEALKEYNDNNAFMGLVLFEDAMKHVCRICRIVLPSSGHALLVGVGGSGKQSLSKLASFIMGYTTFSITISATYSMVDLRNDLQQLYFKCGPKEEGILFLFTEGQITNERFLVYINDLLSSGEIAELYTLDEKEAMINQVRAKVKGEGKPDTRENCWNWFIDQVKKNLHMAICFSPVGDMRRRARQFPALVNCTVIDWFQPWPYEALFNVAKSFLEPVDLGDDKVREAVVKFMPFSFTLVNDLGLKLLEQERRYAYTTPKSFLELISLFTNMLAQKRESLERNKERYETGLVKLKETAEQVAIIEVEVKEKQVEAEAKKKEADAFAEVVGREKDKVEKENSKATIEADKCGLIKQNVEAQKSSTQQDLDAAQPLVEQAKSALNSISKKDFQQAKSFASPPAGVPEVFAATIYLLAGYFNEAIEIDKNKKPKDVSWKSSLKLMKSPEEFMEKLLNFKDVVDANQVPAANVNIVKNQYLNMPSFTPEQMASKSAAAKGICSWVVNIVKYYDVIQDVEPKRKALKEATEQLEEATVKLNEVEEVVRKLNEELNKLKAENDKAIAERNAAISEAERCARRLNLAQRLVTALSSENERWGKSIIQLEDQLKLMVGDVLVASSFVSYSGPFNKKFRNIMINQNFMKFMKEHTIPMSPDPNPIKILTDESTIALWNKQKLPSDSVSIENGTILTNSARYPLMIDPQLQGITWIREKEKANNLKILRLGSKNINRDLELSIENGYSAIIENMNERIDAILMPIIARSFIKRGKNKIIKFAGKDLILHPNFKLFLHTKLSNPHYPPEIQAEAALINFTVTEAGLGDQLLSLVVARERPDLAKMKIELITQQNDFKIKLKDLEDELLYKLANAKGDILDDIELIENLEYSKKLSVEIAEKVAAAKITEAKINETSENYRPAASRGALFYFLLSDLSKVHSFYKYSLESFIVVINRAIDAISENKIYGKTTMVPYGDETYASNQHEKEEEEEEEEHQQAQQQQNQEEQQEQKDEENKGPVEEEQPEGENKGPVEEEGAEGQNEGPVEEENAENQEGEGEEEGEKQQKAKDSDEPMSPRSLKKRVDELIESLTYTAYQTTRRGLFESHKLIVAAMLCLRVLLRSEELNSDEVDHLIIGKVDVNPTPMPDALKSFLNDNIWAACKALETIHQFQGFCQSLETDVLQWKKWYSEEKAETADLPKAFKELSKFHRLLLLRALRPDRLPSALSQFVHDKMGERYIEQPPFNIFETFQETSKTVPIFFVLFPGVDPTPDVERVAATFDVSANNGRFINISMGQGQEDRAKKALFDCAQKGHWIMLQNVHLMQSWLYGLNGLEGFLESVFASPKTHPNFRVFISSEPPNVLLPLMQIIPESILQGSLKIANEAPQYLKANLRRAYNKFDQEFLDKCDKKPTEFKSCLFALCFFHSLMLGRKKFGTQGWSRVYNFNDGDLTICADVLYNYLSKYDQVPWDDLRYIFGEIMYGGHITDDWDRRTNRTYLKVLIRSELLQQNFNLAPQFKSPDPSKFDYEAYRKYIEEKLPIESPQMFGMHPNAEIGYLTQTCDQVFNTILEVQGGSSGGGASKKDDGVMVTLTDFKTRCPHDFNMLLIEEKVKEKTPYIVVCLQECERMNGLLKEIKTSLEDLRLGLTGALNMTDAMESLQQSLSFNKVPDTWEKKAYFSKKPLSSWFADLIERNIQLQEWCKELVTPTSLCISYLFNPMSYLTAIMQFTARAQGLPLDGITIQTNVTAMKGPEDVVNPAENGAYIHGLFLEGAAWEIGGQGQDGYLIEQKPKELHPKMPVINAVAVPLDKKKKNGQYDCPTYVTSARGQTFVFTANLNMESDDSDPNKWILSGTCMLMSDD

No constants are given. Whether binding was seen depends on the method and setting. Some results given as binding are weak or reduced against the parent protein; the word gives no strength.

The target of experiment [1] is outer-arm dynein β heavy chain (T. thermophila) (UniProt O76506). The experiment can be described thus: cryo-EM structure; freshly purified native OAD (not cross-linked) reconstituted on MTD in 20 mM HEPES pH 7.4, 100 mM KCl, 5 mM MgSO4, 1 mM DTT, on ice 45 min; apo state, no docking complex; two classes MTBS-1 and MTBS-2; MTD lattice refined from the same data; both purified.

The target of experiment [2] is β-tubulin of the microtubule doublet (T. thermophila) (UniProt P41352). The description is as above.

Regarding “outer-arm dynein γ heavy chain (from UniProt I7M6H4 1-4168)”, the binding result in experiment [1] and in experiment [2] was “binds” throughout. Consider “outer-arm dynein α heavy chain (from UniProt Q22A67 1-4620)”, for which, in experiment [1], the binding result is listed as “binds”.
